Structures can show the parent of a compound that is named as a salt. ± gives the standard deviation of the averaged measurements. Some of the results follow. These are raw signals, not scaled to a control.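 Ribosome-assembly readouts in HeLa cells were imaged via ENP1 staining, with or without export block, or inducible tagged ribosomal protein reporters. Machine learning classified per-cell signal location versus solvent (DMSO) controls. Hits surpassed the DMSO false-positive mean by five standard deviations and were visually confirmed; three biological replicates.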
Legend:
[1] = test system: HeLa K (ENP1 immunofluorescence, +LMB); assay: fraction of cells with nucleolar or nucleolar/nucleoplasmic ENP1 signal (MainHitrate); higher = more cells with nucleolar/nuclear readout signal (for ENP1 -LMB: less RNAPI inhibition; for +LMB ENP1 and RP reporters: stronger nuclear/nucleolar retention, i.e. ribosome biogenesis defect); conditions: concentration: 1 µM; treatment time: 6 h; ENP1 +LMB; leptomycin B: 20 nM, last 1.5 h
[2] = test system: HeLa K (ENP1 immunofluorescence, no LMB); assay: as above; conditions: concentration: 1 µM; treatment time: 6 h; ENP1 -LMB; leptomycin B: none
HeLa RPS2-YFP reporter = assay: fraction of reporter-positive cells with nuclear (nucleolar or nucleolar/nucleoplasmic) RPS2-YFP (MainHitrate); higher = more cells with nucleolar/nuclear readout signal (for ENP1 -LMB: less RNAPI inhibition; for +LMB ENP1 and RP reporters: stronger nuclear/nucleolar retention, i.e. ribosome biogenesis defect); conditions: concentration: 1 µM; treatment time: 6 h
HeLa RPL29-GFP reporter = assay: fraction of reporter-positive cells with nuclear (nucleolar or nucleolar/nucleoplasmic) RPL29-GFP (MainHitrate); higher = more cells with nucleolar/nuclear readout signal (for ENP1 -LMB: less RNAPI inhibition; for +LMB ENP1 and RP reporters: stronger nuclear/nucleolar retention, i.e. ribosome biogenesis defect); conditions: concentration: 1 µM; treatment time: 6 h

Compound | fraction [1] | fraction [2] | fraction of reporter-positive cells with nuclear (HeLa RPS2-YFP reporter) | fraction of reporter-positive cells with nuclear (HeLa RPL29-GFP reporter)
OCCOCCN1CCN(C2=Nc3ccccc3Sc3ccccc32)CC1 [Quetiapine fumarate (Seroquel)] | 0.118 ± 0.14 | 0.9994 ± 0.001 | 0.0631 ± 0.01 | 0.203 ± 0.07
CC(C)C[C@H](NC(=O)[C@@H](O)[C@H](N)Cc1ccccc1)C(=O)O [Ubenimex (Bestatin)] | 0.0668 ± 0.084 | 0.998 ± 0.0034 | 0.0885 ± 0.053 | 0.188 ± 0.08
N#Cc1c(N(CC(=O)O)CC(=O)O)sc(C(=O)O)c1CC(=O)O [Strontium ranelate (Protelos)] | 0.144 ± 0.2 | 0.9943 ± 0.0099 | 0.148 ± 0.075 | 0.237 ± 0.098
C=C1/C(=C\C=C2/CCC[C@]3(C)[C@@H]([C@H](C)CCCC(C)C)CC[C@@H]23)C[C@@H](O)C[C@@H]1O [Alfacalcidol] | 0.0478 ± 0.024 | 0.9986 ± 0.0024 | 0.0984 ± 0.07 | 0.212 ± 0.044
CCOC(=O)c1ccc(C#Cc2ccc3c(c2)C(C)(C)CCS3)nc1 [Tazarotene (Avage)] | 0.0965 ± 0.093 | 0.998 ± 0.0035 | 0.103 ± 0.078 | 0.233 ± 0.058
O=C(CCCCCCC(=O)Nc1ccccc1)NO [Vorinostat (SAHA)] | 0.103 ± 0.015 | 0.9984 ± 0.0028 | 0.0856 ± 0.044 | 0.261 ± 0.097
CN1CCN(c2cc3c(cc2F)c(=O)c(C(=O)O)cn3-c2ccc(F)cc2)CC1 [Difloxacin HCl] | 0.196 ± 0.27 | 0.99983 ± 0.00029 | 0.182 ± 0.18 | 0.294 ± 0.27
CCOc1nc2cccc(C(=O)OCc3oc(=O)oc3C)c2n1Cc1ccc(-c2ccccc2-c2noc(=O)[nH]2)cc1 [Azilsartan Medoxomil (TAK-491)] | 0.0843 ± 0.082 | 0.994 ± 0.011 | 0.136 ± 0.094 | 0.213 ± 0.1
COc1ccccc1OCCNCC(O)COc1cccc2[nH]c3ccccc3c12 (stereo unspecified) [Carvedilol] | 0.0618 ± 0.078 | 0.993 ± 0.013 | 0.13 ± 0.1 | 0.243 ± 0.077
CC(=O)OCC(=O)[C@@]12OC(C)(C)O[C@@H]1C[C@H]1[C@@H]3C[C@H](F)C4=CC(=O)C=C[C@]4(C)[C@@]3(F)[C@@H](O)C[C@@]12C [Fluocinonide (Vanos)] | 0.0654 ± 0.084 | 0.979 ± 0.036 | 0.171 ± 0.077 | 0.242 ± 0.023
N#Cc1ccc(C(c2ccc(C#N)cc2)n2cncn2)cc1 [Letrozole] | 0.0865 ± 0.11 | 0.9976 ± 0.0042 | 0.121 ± 0.097 | 0.207 ± 0.074
Nc1nc(=O)c2c([nH]1)NC[C@H](CNc1ccc(C(=O)N[C@@H](CCC(=O)O)C(=O)O)cc1)N2C=O [Calcium levofolinate (Calcium Folinate)] | 0.0887 ± 0.11 | 0.996 ± 0.0069 | 0.127 ± 0.09 | 0.203 ± 0.092
C[C@H](NC(=O)Cc1cc(F)cc(F)c1)C(=O)N[C@H](C(=O)OC(C)(C)C)c1ccccc1 | 0.174 ± 0.26 | 0.991 ± 0.016 | 0.137 ± 0.071 | 0.224 ± 0.053
COc1nc(C)nc(Cl)c1NC1=NCCN1 [Moxonidine] | 0.123 ± 0.19 | 0.995 ± 0.0086 | 0.118 ± 0.069 | 0.234 ± 0.091
CC(=O)[C@H]1CC[C@H]2[C@@H]3C[C@H](C)C4=CC(=O)CC[C@]4(C)[C@H]3[C@@H](O)C[C@]12C [Medrysone] | 0.067 ± 0.067 | 0.9959 ± 0.0072 | 0.0965 ± 0.045 | 0.309 ± 0.22
Cc1ccc(O)c([C@H](CCN(C(C)C)C(C)C)c2ccccc2)c1 [Tolterodine tartrate (Detrol LA)] | 0.142 ± 0.23 | 0.9949 ± 0.0089 | 0.134 ± 0.11 | 0.232 ± 0.078
OCCN(CCO)c1nc(N2CCCCC2)c2nc(N(CCO)CCO)nc(N3CCCCC3)c2n1 [Dipyridamole (Persantine)] | 0.116 ± 0.17 | 0.991 ± 0.016 | 0.143 ± 0.11 | 0.236 ± 0.074
CC(C)C(=O)Nc1ccc([N+](=O)[O-])c(C(F)(F)F)c1 [Flutamide (Eulexin)] | 0.12 ± 0.17 | 0.992 ± 0.013 | 0.13 ± 0.12 | 0.215 ± 0.08
CCCC(C(=O)OCCN(CC)CC)(c1ccccc1)c1ccccc1 [Proadifen HCl] | 0.0997 ± 0.1 | 0.998 ± 0.0035 | 0.181 ± 0.17 | 0.326 ± 0.25
O=C(O)CCCN1CCC(O[C@@H](c2ccc(Cl)cc2)c2ccccn2)CC1 [Bepotastine Besilate] | 0.109 ± 0.16 | 0.985 ± 0.025 | 0.122 ± 0.11 | 0.201 ± 0.055
CCn1cc(C(=O)O)c(=O)c2cc(F)c(N3CCNCC3)cc21 [Norfloxacin (Norxacin)] | 0.075 ± 0.059 | 0.9984 ± 0.0028 | 0.0909 ± 0.031 | 0.21 ± 0.045
O=C(O)c1cc(/N=N/c2ccc(S(=O)(=O)Nc3ccccn3)cc2)ccc1O [Sulfasalazine (Azulfidine)] | 0.0841 ± 0.074 | 0.9983 ± 0.003 | 0.076 ± 0.023 | 0.238 ± 0.081
CC(C(=O)O)c1ccc2c(c1)Cc1cccnc1O2 (stereo unspecified) [Pranoprofen] | 0.0376 ± 0.038 | 0.9962 ± 0.0066 | 0.0595 ± 0.022 | 0.249 ± 0.08
NCC[C@H](O)C(=O)N[C@@H]1C[C@H](N)[C@@H](O[C@H]2O[C@H](CN)[C@@H](O)[C@H](O)[C@H]2O)[C@H](O)[C@H]1O[C@H]1O[C@H](CO)[C@@H](O)[C@H](N)[C@H]1O [Amikacin hydrate] | 0.102 ± 0.15 | 0.985 ± 0.026 | 0.101 ± 0.1 | 0.219 ± 0.085

Reformatted: entries from further up.
Compound	fraction [1]	fraction [2]	fraction of reporter-positive cells with nuclear (HeLa RPS2-YFP reporter)	fraction of reporter-positive cells with nuclear (HeLa RPL29-GFP reporter)
CN1CCN(c2cc3c(cc2F)c(=O)c(C(=O)O)cn3-c2ccc(F)cc2)CC1 [Difloxacin HCl]	0.196 ± 0.27	0.99983 ± 0.00029	0.182 ± 0.18	0.294 ± 0.27
CCOc1nc2cccc(C(=O)OCc3oc(=O)oc3C)c2n1Cc1ccc(-c2ccccc2-c2noc(=O)[nH]2)cc1 [Azilsartan Medoxomil (TAK-491)]	0.0843 ± 0.082	0.994 ± 0.011	0.136 ± 0.094	0.213 ± 0.1

Source: the supplement of paper PMC12542422
